# Measured values as given in PMC4215718.
# By UniProt entry, the sequences of proteins in these tests, tags left out.
# UniProt Q8WVS4: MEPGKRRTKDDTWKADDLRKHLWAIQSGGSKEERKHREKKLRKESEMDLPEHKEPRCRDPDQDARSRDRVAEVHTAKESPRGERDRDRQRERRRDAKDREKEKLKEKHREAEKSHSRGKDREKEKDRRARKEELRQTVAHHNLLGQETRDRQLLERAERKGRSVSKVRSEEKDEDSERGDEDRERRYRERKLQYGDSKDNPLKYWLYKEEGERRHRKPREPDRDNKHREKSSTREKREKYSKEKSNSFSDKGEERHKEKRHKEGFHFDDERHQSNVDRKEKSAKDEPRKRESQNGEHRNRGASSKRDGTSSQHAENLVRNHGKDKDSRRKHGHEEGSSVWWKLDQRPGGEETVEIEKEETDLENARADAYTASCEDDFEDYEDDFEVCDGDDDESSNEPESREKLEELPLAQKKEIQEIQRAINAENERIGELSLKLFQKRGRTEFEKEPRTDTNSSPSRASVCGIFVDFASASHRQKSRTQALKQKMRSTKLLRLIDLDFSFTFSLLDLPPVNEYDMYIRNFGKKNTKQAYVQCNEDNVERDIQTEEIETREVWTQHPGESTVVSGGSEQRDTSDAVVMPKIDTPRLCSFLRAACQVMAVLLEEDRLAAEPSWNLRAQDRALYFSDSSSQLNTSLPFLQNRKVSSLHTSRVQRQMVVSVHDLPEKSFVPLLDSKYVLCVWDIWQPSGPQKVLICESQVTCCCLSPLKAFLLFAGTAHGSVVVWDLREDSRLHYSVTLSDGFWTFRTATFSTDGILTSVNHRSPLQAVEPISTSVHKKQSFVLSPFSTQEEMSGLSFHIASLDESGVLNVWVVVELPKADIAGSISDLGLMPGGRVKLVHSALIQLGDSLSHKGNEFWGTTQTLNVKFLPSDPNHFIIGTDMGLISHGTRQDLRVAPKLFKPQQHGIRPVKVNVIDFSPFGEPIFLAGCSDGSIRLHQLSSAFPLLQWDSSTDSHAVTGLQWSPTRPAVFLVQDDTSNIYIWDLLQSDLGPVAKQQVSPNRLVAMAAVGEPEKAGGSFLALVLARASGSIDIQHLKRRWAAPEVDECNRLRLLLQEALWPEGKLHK
# UniProt Q8NCM8: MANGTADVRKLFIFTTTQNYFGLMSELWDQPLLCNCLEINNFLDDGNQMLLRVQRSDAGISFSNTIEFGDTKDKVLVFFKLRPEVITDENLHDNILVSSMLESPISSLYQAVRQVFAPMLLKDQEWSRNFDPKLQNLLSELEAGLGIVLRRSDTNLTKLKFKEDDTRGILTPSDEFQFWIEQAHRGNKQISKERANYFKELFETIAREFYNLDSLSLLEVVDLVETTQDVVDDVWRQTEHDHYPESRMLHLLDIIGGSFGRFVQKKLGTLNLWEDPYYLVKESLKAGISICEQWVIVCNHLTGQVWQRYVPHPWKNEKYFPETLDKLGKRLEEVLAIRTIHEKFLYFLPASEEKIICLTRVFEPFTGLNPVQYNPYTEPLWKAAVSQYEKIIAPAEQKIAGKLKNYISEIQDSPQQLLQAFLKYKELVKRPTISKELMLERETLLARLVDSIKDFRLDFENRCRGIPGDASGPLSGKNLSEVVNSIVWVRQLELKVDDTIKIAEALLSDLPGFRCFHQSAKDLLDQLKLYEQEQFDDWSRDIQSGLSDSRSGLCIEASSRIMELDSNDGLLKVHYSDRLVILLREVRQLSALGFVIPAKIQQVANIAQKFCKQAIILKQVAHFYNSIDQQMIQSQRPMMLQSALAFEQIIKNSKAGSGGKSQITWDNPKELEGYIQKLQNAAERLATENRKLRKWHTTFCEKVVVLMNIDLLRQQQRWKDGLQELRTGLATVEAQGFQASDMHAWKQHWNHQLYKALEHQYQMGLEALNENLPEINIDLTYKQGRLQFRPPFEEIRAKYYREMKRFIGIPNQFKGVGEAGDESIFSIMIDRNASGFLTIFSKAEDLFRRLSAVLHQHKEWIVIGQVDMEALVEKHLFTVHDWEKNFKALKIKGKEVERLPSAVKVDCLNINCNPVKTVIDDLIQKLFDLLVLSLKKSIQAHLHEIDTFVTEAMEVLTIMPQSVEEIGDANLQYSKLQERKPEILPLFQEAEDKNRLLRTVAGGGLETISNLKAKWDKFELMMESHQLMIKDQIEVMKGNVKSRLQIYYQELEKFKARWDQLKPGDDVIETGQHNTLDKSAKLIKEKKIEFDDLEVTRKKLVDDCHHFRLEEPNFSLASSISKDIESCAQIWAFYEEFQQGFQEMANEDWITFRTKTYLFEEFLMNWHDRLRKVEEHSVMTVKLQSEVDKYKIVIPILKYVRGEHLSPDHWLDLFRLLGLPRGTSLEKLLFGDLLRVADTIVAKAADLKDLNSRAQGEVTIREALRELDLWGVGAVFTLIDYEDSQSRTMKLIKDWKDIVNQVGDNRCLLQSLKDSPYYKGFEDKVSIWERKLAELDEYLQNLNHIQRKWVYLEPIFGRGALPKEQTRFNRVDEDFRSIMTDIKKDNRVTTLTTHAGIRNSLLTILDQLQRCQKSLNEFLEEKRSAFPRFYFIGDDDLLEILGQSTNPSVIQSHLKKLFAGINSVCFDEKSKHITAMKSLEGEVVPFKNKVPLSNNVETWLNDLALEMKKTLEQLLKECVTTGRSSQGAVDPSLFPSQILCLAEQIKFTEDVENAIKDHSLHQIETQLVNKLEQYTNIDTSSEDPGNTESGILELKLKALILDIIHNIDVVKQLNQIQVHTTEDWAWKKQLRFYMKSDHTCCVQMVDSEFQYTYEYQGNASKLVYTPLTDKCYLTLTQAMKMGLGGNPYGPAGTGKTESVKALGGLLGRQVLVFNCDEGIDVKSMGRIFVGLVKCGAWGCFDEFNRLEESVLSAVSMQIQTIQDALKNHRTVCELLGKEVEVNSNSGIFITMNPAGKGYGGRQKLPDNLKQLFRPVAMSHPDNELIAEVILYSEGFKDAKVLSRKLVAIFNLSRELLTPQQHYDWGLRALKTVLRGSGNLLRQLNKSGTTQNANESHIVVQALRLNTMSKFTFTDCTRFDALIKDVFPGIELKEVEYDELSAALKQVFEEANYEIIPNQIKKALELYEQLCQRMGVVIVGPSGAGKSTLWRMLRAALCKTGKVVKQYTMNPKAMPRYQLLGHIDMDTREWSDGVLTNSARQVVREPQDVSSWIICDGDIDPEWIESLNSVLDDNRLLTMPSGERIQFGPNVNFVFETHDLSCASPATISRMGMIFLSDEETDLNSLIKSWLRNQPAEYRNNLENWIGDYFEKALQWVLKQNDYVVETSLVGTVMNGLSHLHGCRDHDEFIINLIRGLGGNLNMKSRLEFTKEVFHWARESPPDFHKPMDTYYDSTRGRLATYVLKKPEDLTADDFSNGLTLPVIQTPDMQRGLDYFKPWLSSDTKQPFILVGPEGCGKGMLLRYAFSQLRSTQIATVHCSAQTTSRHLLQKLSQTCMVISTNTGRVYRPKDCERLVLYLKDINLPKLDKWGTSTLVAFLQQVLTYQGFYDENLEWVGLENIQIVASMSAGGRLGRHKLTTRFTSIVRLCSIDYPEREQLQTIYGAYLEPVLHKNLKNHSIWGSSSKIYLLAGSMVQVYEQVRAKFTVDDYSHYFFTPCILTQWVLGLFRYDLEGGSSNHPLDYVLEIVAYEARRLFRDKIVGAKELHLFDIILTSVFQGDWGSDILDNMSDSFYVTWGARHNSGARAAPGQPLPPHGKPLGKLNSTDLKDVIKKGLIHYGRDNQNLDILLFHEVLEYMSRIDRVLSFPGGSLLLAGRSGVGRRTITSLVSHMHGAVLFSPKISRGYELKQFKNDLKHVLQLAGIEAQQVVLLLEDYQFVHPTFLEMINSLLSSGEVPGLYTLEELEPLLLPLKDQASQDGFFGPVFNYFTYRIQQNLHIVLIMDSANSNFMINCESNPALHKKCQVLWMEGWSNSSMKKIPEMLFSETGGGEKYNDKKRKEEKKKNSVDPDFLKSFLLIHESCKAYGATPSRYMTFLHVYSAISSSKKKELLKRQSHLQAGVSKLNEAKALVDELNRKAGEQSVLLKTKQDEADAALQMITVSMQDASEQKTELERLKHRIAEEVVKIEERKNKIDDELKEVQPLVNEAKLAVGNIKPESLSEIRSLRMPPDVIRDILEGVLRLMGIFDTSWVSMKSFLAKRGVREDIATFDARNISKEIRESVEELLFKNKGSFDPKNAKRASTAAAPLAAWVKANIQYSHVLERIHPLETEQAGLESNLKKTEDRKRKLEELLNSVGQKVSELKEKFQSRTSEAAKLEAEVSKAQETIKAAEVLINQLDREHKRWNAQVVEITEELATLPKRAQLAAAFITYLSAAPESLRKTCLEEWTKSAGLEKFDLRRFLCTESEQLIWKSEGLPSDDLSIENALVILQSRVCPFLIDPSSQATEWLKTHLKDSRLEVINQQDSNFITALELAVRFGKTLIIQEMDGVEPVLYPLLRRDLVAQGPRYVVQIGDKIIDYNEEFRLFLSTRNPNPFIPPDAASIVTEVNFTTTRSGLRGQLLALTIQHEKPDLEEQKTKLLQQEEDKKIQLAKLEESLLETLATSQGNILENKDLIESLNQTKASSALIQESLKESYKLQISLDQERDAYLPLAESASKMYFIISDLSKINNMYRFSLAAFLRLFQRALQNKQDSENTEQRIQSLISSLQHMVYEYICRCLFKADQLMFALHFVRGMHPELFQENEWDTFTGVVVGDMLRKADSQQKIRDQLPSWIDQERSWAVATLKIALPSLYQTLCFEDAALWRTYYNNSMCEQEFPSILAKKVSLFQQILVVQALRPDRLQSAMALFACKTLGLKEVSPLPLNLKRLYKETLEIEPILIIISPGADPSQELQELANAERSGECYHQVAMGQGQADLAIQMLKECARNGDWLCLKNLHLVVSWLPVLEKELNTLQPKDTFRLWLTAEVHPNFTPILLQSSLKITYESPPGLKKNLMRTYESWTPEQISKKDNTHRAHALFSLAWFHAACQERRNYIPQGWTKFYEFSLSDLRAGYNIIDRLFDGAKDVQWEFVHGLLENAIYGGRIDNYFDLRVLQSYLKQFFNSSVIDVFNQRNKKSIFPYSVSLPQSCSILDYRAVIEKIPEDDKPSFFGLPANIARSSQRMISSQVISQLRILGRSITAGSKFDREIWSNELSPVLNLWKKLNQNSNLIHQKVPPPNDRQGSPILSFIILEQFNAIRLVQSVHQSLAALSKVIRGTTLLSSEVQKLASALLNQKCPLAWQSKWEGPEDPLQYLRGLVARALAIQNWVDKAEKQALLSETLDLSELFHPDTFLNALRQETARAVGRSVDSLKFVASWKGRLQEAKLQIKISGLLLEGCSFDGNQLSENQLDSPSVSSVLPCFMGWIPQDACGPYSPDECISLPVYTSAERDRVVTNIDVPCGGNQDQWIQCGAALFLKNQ
# UniProt Q9Y266: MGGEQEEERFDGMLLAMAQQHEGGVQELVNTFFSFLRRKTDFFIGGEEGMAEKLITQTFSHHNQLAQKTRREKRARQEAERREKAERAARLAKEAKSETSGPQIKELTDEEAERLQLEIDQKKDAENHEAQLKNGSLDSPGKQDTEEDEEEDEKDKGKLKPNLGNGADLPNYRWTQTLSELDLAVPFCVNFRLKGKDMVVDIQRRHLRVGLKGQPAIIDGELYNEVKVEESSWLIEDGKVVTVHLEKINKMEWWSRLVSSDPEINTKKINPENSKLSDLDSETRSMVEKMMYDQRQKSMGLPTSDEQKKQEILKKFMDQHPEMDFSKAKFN
# UniProt Q8TD16: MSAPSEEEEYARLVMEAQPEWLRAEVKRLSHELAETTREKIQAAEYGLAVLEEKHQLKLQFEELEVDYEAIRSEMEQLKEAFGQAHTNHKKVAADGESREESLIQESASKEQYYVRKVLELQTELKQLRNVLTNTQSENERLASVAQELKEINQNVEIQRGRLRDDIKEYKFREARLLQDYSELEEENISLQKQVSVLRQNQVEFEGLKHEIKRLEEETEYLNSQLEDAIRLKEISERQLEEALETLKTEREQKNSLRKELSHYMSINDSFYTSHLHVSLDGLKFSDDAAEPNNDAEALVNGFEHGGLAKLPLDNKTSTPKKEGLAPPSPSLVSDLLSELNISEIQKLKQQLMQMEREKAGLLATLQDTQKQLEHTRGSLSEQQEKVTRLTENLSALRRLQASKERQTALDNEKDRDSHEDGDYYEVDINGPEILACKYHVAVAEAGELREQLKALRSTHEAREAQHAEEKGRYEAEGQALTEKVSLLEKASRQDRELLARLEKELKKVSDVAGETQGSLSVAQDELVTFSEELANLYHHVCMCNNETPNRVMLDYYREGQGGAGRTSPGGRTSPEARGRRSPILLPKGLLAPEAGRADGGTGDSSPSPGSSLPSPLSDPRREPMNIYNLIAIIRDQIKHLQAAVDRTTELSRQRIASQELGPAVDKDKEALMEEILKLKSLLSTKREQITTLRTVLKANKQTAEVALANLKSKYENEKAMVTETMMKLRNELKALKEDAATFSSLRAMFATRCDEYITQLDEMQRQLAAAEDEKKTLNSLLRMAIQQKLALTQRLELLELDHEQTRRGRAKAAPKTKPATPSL
# No constants are given. Whether binding was seen depends on the method and setting. Binding seen in cells or lysates may run through a third protein. These calls come from enrichment with a bait or labelling near it, and not all partners need be listed. For some assays here: A no says only that the protein was not detected with the bait. For some assays here: Tags and fused reporters may be left off the sequences shown.
# T1: mGFP–WDR34 (human), Q96EX3
# T1 chain: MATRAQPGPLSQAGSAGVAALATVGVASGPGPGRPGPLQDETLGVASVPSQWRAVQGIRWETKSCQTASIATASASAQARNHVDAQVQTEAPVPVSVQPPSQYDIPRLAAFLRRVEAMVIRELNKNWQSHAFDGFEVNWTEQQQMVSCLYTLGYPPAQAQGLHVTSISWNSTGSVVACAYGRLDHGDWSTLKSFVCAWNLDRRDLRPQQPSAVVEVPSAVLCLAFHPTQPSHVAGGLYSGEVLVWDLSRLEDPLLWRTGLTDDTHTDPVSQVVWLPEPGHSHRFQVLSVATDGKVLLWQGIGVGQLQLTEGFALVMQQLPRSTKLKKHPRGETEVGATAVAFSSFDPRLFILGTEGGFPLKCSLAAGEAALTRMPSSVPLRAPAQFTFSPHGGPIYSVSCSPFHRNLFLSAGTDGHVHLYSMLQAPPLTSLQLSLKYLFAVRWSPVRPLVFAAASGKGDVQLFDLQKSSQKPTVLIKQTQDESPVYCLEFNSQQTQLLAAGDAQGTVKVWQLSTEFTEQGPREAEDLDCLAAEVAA
# B1: Nudel (protein, UniProt Q9GZM8 1-345)
# chain: MDGEDIPDFSSLKEETAYWKELSLKYKQSFQEARDELVEFQEGSRELEAELEAQLVQAEQRNRDLQADNQRLKYEVEALKEKLEHQYAQSYKQVSVLEDDLSQTRAIKEQLHKYVRELEQANDDLERAKRATIVSLEDFEQRLNQAIERNAFLESELDEKESLLVSVQRLKDEARDLRQELAVRERQQEVTRKSAPSSPTLDCEKMDSAVQASLSLPATPVGKGTENTFPSPKAIPNGFGTSPLTPSARISALNIVGDLLRKVGALESKLAACRNFAKDQASRKSYISGNVNCGVLNGNGTKFSRSGHTSFFDKGAVNGFDPAPPPPGLGSSRPSSAPGMLPLSV
# B2: NudE (protein, UniProt Q9NXR1 1-335)
# chain: MEDSGKTFSSEEEEANYWKDLAMTYKQRAENTQEELREFQEGSREYEAELETQLQQIETRNRDLLSENNRLRMELETIKEKFEVQHSEGYRQISALEDDLAQTKAIKDQLQKYIRELEQANDDLERAKRATIMSLEDFEQRLNQAIERNAFLESELDEKENLLESVQRLKDEARDLRQELAVQQKQEKPRTPMPSSVEAERTDTAVQATGSVPSTPIAHRGPSSSLNTPGSFRRGLDDSTGGTPLTPAARISALNIVGDLLRKVGALESKLASCRNLVYDQSPNRTGGPASGRSSKNRDGGERRPSSTSVPLGDKGLDTSCRWLSKSTTRSSSSC
# B3: NudCD3 (protein, UniProt Q8IVD9 1-361)
# chain: METGAAELYDQALLGILQHVGNVQDFLRVLFGFLYRKTDFYRLLRHPSDRMGFPPGAAQALVLQVFKTFDHMARQDDEKRRQELEEKIRRKEEEEAKTVSAAAAEKEPVPVPVQEIEIDSTTELDGHQEVEKVQPPGPVKEMAHGSQEAEAPGAVAGAAEVPREPPILPRIQEQFQKNPDSYNGAVRENYTWSQDYTDLEVRVPVPKHVVKGKQVSVALSSSSIRVAMLEENGERVLMEGKLTHKINTESSLWSLEPGKCVLVNLSKVGEYWWNAILEGEEPIDIDKINKERSMATVDEEEQAVLDRLTFDYHQKLQGKPQSHELKVHEMLKKGWDAEGSPFRGQRFDPAMFNISPGAVQF
# B4: bicaudal 1 (protein, UniProt Q96G01 1-975)
# chain: MAAEEVLQTVDHYKTEIERLTKELTETTHEKIQAAEYGLVVLEEKLTLKQQYDELEAEYDSLKQELEQLKEAFGQSFSIHRKVAEDGETREETLLQESASKEAYYLGKILEMQNELKQSRAVVTNVQAENERLTAVVQDLKENNEMVELQRIRMKDEIREYKFREARLLQDYTELEEENITLQKLVSTLKQNQVEYEGLKHEIKRFEEETVLLNSQLEDAIRLKEIAEHQLEEALETLKNEREQKNNLRKELSQYISLNDNHISISVDGLKFAEDGSEPNNDDKMNGHIHGPLVKLNGDYRTPTLRKGESLNPVSDLFSELNISEIQKLKQQLMQVEREKAILLANLQESQTQLEHTKGALTEQHERVHRLTEHVNAMRGLQSSKELKAELDGEKGRDSGEEAHDYEVDINGLEILECKYRVAVTEVIDLKAEIKALKEKYNKSVENYTDEKAKYESKIQMYDEQVTSLEKTTKESGEKMAHMEKELQKMTSIANENHSTLNTAQDELVTFSEELAQLYHHVCLCNNETPNRVMLDYYRQSRVTRSGSLKGPDDPRGLLSPRLARRGVSSPVETRTSSEPVAKESTEASKEPSPTKTPTISPVITAPPSSPVLDTSDIRKEPMNIYNLNAIIRDQIKHLQKAVDRSLQLSRQRAAARELAPMIDKDKEALMEEILKLKSLLSTKREQIATLRAVLKANKQTAEVALANLKNKYENEKAMVTETMTKLRNELKALKEDAATFSSLRAMFATRCDEYVTQLDEMQRQLAAAEDEKKTLNTLLRMAIQQKLALTQRLEDLEFDHEQSRRSKGKLGKSKIGSPKVSGEASVTVPTIDTYLLHSQGPQTPNIRVSSGTQRKRQFSPSLCDQSRPRTSGASYLQNLLRVPPDPTSTESFLLKGPPSMSEFIQGHRLSKEKRLTVAPPDCQQPAASVPPQCSQLAGRQDCPTVSPDTALPEEQPHSSSQCAPLHCLSKPPHP
# B5: Spindly (protein, UniProt Q96EA4 1-605)
# chain: MEADIITNLRCRLKEAEEERLKAAQYGLQLVESQNELQNQLDKCRNEMMTMTESYEQEKYTLQREVELKSRMLESLSCECEAIKQQQKMHLEKLEEQLSRSHGQEVNELKTKIEKLKVELDEARLSEKQLKHQVDHQKELLSCKSEELRVMSERVQESMSSEMLALQIELTEMESMKTTLKEEVNELQYRQEQLELLITNLMRQVDRLKEEKEEREKEAVSYYNALEKARVANQDLQVQLDQALQQALDPNSKGNSLFAEVEDRRAAMERQLISMKVKYQSLKKQNVFNREQMQRMKLQIATLLQMKGSQTEFEQQERLLAMLEQKNGEIKHLLGEIRNLEKFKNLYDSMESKPSVDSGTLEDNTYYTDLLQMKLDNLNKEIESTKGELSIQRMKALFESQRALDIERKLFANERCLQLSESENMKLRAKLDELKLKYEPEETVEVPVLKKRREVLPVDITTAKDACVNNSALGGEVYRLPPQKEETQSCPNSLEDNNLQLEKSVSIYTPVVSLSPHKNLPVDMQLKKEKKCVKLIGVPADAEALSERSGNTPNSPRLAAESKLQTEVKEGKETSSKLEKETCKKLHPILYVSSKSTPETQCPQQ
# B6: LIS1 (protein, UniProt P43034 1-410)
# chain: MVLSQRQRDELNRAIADYLRSNGYEEAYSVFKKEAELDVNEELDKKYAGLLEKKWTSVIRLQKKVMELESKLNEAKEEFTSGGPLGQKRDPKEWIPRPPEKYALSGHRSPVTRVIFHPVFSVMVSASEDATIKVWDYETGDFERTLKGHTDSVQDISFDHSGKLLASCSADMTIKLWDFQGFECIRTMHGHDHNVSSVAIMPNGDHIVSASRDKTIKMWEVQTGYCVKTFTGHREWVRMVRPNQDGTLIASCSNDQTVRVWVVATKECKAELREHEHVVECISWAPESSYSSISEATGSETKKSGKPGPFLLSGSRDKTIKMWDVSTGMCLMTLVGHDNWVRGVLFHSGGKFILSCADDKTLRVWDYKNKRCMKTLNAHEHFVTSLDFHKTAPYVVTGSVDQTVKVWECR
# B7: Tctex-3, P51808 1-116 (protein)
# chain: MEEYHRHCDEVGFNAEEAHNIVKECVDGVLGGEDYNHNNINQWTASIVEQSLTHLVKLGKAYKYIVTCAVVQKSAYGFHTASSCFWDTTSDGTCTVRWENRTMNCIVNVFAIAIVL
# B8: roadblock-2, Q8TF09 1-96 (protein)
# chain: MAEVEETLKRIQSHKGVIGTMVVNAEGIPIRTTLDNSTTVQYAGLLHHLTMKAKSTVRDIDPQNDLTFLRIRSKKHEIMVAPDKEYLLIVIQNPCE
# Target: mGFP–WDR34 (human) (UniProt Q96EX3)
# Experiment: affinity purification with mass spectrometry; GFP nano-trap beads with lysates of serum-starved (24 h) hTERT-RPE1 cells stably expressing mGFP or mGFP–WDR34; 10 mM Tris-HCl pH 7.4, 50 mM NaCl, 0.5 mM EDTA, 1.0% IGEPAL lysis; 2 h at 4°C; interactome compared with that of mGFP
# Details: not given
row,binding,Molecule
1,binds,WDR60 (from UniProt Q8WVS4 1-1066)
2,binds,roadblock-1 (from UniProt Q9NP97 1-96)
3,binds,dynein-2 heavy chain (DYNC2H1) (from UniProt Q8NCM8 1-4307)
4,binds,dynein-2 light intermediate chain subunit DYNC2LI1/LIC3 (from UniProt Q8TCX1 1-351)
5,binds,LC8-1 (from UniProt P63167 1-89)
6,binds,Tctex-1 (from UniProt P63172 1-113)
7,binds,TCTEX1D2 (from UniProt Q8WW35 1-142)
8,binds,NudC (from UniProt Q9Y266 1-331)
9,no binding,B1
10,no binding,B2
11,binds,B3
12,no binding,B4
13,no binding,B5
14,no binding,B6

row,Molecule,binding
1,Bicaudal 2 (from UniProt Q8TD16 1-824),no binding

# Target: T1, mGFP–WDR34 (human), Q96EX3
# Experiment: as above
# Details: remark: other sources report otherwise
row,binding,Molecule
1,binds,B7
2,binds,B8
